Results as given in PubChem BioAssay AID2685 (National Center for Advancing Translational Sciences (NCATS), 2010).
Values joined by “and” are separate entries in the source; they are usually repeats but may differ in a detail not shown here. Identical values can stand only once. Some of the results follow. Further columns of the screen follow, without active or inactive calls. Compounds called inactive in the main read-out are mostly missing here. Potencies come from curve fits of mixed quality, noted in brackets.

Experiment: qHTS Assay for Lipid Storage Modulators in Drosophila S3 Cells;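 as to cell number change: cells counted by Cell Tracker Red CMTPX staining in the red channel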
Details: BODIPY lipid droplet fluorescence, 18-24 h; for cell number change: measured here: cell count max response, cells fed with added oleic acid
How it was run: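 Drosophila S3 cells loaded with oleic acid (400 uM, as added) and compounds at several concentrations; lipid droplets imaged by 488-nm laser-scanning cytometry, 500–530 nm intensity and object ratio to cell channel. Percent activity normalized to 20 uM Triacsin C.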

[1] = measured here: lipid fluorescence (Fed channel) AC50, cells fed with added oleic acid
[2] = measured here: cell number channel AC50, cells fed with added oleic acid

Compound	cell number change	AC50 [1]	AC50 [2]
Cc1ccc(NC(=O)CSc2nnc(Cc3cccn3C)n2-c2ccc(F)cc2)cc1	8.63%	0.146 µM [rising, full curve, poor fit]	–
Cc1ccc(S(=O)(=O)N2[C@@H](c3ccccc3)C(C(=O)O)=CC[C@H]2c2ccc3c(c2)OCO3)cc1	-19.7%	–	–
Nn1cc(-c2ccccc2)nc1SCC(=O)N1CCN(S(=O)(=O)c2ccc3ccccc3c2)CC1	–	–	0.82 µM [rising, partial curve, poor fit]
COc1ccc(Nc2cc(C)nc3ccccc23)cc1	1.98%	16.4 µM [falling, partial curve, poor fit]	–
COc1ccc(N2C(=O)C3CCCN3C2c2cc(OC)c(OC)cc2OC)cc1 (stereo not given)	2.03%	–	–
CC1CC(C)CN(C(=O)CCNC(=O)Cn2cnc3ccccc3c2=O)C1 (stereo not given)	-1.25%	–	–
C/C(=N\NC(=O)c1ccn(C)n1)c1ccc(NC(=O)c2cccc(F)c2)cc1	-6.39%	0.00517 µM [rising, full curve, poor fit]	–
Cc1ccc(C(=O)N2CCCCC2C(=O)O)o1 (stereo not given)	-8.01%	0.82 µM [falling, full curve]	–
COCC(C)NC(=O)c1noc2c1CCc1cc(OC)ccc1-2 (stereo not given)	4.99%	0.82 µM [rising, partial curve]	–
CS(=O)(=O)N(CC(=O)NC1CC1)C1CCCCC1	-2.04%	0.00411 µM [rising, full curve, poor fit]	–
COc1cc(C(=O)OCC(=O)N2CCCC2)cc2c1OCCO2	2.67%	20.6 µM [rising, single point]	–
COc1cccc(CCNC(=O)CCc2nnc(Cc3cc(OC)ccc3OC)o2)c1	-12%	14.6 µM [falling, single point]	–
CC(OC(=O)Cc1coc2cc3c(cc12)CCC3)C(=O)NCc1ccc2c(c1)OCO2 (stereo not given)	43.2%	6.51 µM [rising, partial curve, poor fit]	5.8 µM [rising, full curve]
Nc1nonc1C(=Nc1ccccc1)NO	-1.49%	25.9 µM [falling, single point]	–
CCOC(=O)N1CCN(CC(=O)Nc2c(C(=O)OC)[nH]c3cccc(Cl)c23)CC1	–	1.46 µM [falling, partial curve, poor fit]	–
CN(C)S(=O)(=O)NC(c1ccccc1)c1ccccc1	7.88%	0.731 µM [falling, full curve]	0.517 µM [falling, full curve]
Cc1cc(C)c(NC(=O)COc2cccnc2[N+](=O)[O-])c(C)c1	9.22%	–	–
O=C1c2ccccc2C(=O)C1c1ccncc1	-21.9%	2.59 µM [rising, full curve]	–
COc1ccc(CCNCC(=O)N2C(C)CCCC2C)cc1OC (stereo not given)	–	–	0.651 µM [rising, partial curve, poor fit]
COc1cccc(SCc2noc(C(=O)NC(C)C)c2C(=O)NC(C)C)c1	-0.528%	3.66 µM [falling, full curve, poor fit]	6.51 µM [falling, single point]

Compound	cell number change	AC50 [1]	AC50 [2]
COc1cc(C(=O)NCCOc2ccc(C)c(C)c2)cc(OC)c1OC	-4.01%	–	–
CCc1ccc2nc(N(CCCN(C)C)C(=O)c3ccc4c(c3)OCCO4)sc2c1	-31.4%	–	–
O=C(CCCOc1ccc(Cl)cc1)NC1CCCCC1	-15.3%	–	–
Cc1nn(C(=O)c2ccc([N+](=O)[O-])cc2)c(C)c1Br	-2.71%	0.0259 µM [falling, full curve, poor fit]	–
Cc1c(Cl)cccc1NC(=O)CCN1CCCCC1	52.7%	–	–
O=C(NC1CCC1)C1CCC(=O)N(Cc2ccccc2F)C1 (stereo not given)	11.6%	–	–
NC(=O)c1c(NC(=O)CCCC(=O)O)sc2c1CCCCCC2	15%	1.46 µM [rising, full curve, poor fit]	–
O=[N+]([O-])c1ccc(S(=O)(=O)Nc2ccc(-c3csc(-c4ccccc4)n3)cc2)cc1	-58.8%	–	29.1 µM [falling, single point]
CC(C)(C)c1ccc(OCC(=O)O)cc1	20.8% and -3.85%	2.59 µM [falling, partial curve, poor fit]	–
Cc1cccc(/C=C/C(=O)c2cc(Br)ccc(=O)c2O)c1	-18.8%	–	–
NC(Cc1ccc(O)cc1)c1cn([C@@H](CCC(=O)O)C(=O)N2CCNCC2)nn1 (stereo not given in full)	-32.5%	18.4 µM [falling, single point]	–
COC(=O)c1ccc(S(=O)(=O)NNC(=O)COc2ccc(C)cc2)cc1	-10.1%	0.146 µM [falling, full curve, poor fit]	–
Cc1ccc(-c2cc3onc(-c4ccccc4)c3c(=O)n2C)cc1	-2.24%	–	–
CN(CC(=O)Nc1ccccc1C(F)(F)F)C(=O)c1ccccc1Sc1ccccc1C#N	-3.67%	6.51 µM [falling, single point]	–
CC(NS(=O)(=O)c1ccccc1)C(c1cccs1)N1CCOCC1 (stereo not given)	-12.8%	0.00461 µM [falling, full curve, poor fit]	3.66 µM [falling, partial curve, poor fit]
COc1ccc(CCn2ccc(O)c(Cc3ccc(Cl)cc3)c2=O)cc1OC	-73.9%	0.517 µM [falling, full curve]	2.59 µM [falling, full curve]
Cn1c(=O)c2ncn(CC(=O)O)c2n(C)c1=O	-45%	29.1 µM [falling, single point]	20.6 µM [falling, single point]
CN1CCC(N(C)C(=O)c2ccc(Cl)c(S(=O)(=O)Nc3cc(Cl)ccc3Cl)c2)CC1	-59.6%	0.92 µM [falling, full curve]	0.58 µM [falling, full curve]
CC(C)CCNC(=O)CN(Cc1ccco1)C(=O)CCC(=O)Nc1nccs1	-31%	–	0.206 µM [falling, full curve, poor fit]
O=C(CSc1nnc(Cc2cccs2)n1Cc1ccco1)Nc1cc(Cl)cc(Cl)c1	-33.8%	25.9 µM [falling, single point]	–

Compound	cell number change	AC50 [1]	AC50 [2]
COc1ccc(NC(=O)NNC(=O)c2ccc(Cl)cc2Cl)cc1OC	12.4%	0.184 µM [rising, full curve, poor fit]	0.0731 µM [rising, full curve, poor fit]
O=C(CNc1cccc(Cl)c1)NNC(=S)NCc1ccccc1	-2.24%	6.51 µM [rising, single point]	6.51 µM [rising, single point]
Cc1ccc(C(C(=O)NCC2CCCO2)N(Cc2ccccc2F)C(=O)Cn2nnc(-c3cccs3)n2)cc1 (stereo not given)	76.3%	–	16.4 µM [rising, partial curve]
COc1ccc(N2C(=S)NC3N2C(=S)NC3(C)c2ccccc2)cc1 (stereo not given)	-12.3%	–	–
CC1(C)CC(=O)C/C(=N/NC(=O)COc2ccc3ccccc3c2Br)C1	28.4%	29.1 µM [rising, single point]	–
CN1CCN(C(c2ccc(Br)cc2)c2cc(Cl)c3cccnc3c2O)CC1 (stereo not given)	–	18.4 µM [falling, partial curve]	–
CN(C)c1ccc(/C=C/c2nc3ccccc3c(=O)n2-c2ccc(C(=O)O)cc2)cc1	-85.6%	25.9 µM [falling, single point]	29.1 µM [falling, single point]
CCOc1ccc(C2SCC(=O)N2c2c(C)n(C)n(-c3ccccc3)c2=O)cc1 (stereo not given)	6.6%	6.51 µM [falling, single point]	–
COCCSc1ccccc1C(=O)Nc1ccc2c(c1)OCCO2	33.8%	6.51 µM [rising, single point]	11.6 µM [rising, single point]
COc1cccc2cc(C(=O)NCCc3ccccc3)oc12	27%	–	–
O=C1c2ccccc2-c2onc3ccc(Oc4ccccc4)c1c23	-81.1%	9.2 µM [falling, partial curve]	13 µM [falling, partial curve]
NC(=O)C1CCN(c2ccc(S(=O)(=O)N3CCC(Cc4ccccc4)CC3)cn2)CC1	–	0.13 µM [falling, full curve]	0.00461 µM [falling, full curve, poor fit]
N#C/C(C(=O)NCc1ccccc1)=C1/SC(Cc2ccc(Cl)cc2)C(=O)N1c1ccccc1 (stereo not given)	18.4%	9.2 µM [rising, partial curve]	–
Cc1ccccc1-c1nnc(SCC#N)o1	–	0.0146 µM [rising, full curve, poor fit]	–
CC1(C)NC(=O)N(CC(=O)N2CCN(S(=O)(=O)c3ccccc3F)CC2)C1=O	-11.5%	6.51 µM [falling, single point]	–
O=C(Nc1ccccn1)c1ccc(Cl)c(S(=O)(=O)N2CCc3ccccc32)c1	-34.1%	0.651 µM [rising, full curve]	4.61 µM [falling, full curve, poor fit]
Cc1cc(NC(=O)CSc2ccc3nnc(-c4cccs4)n3n2)no1	-43.3%	0.651 µM [falling, partial curve, poor fit]	29.1 µM [falling, single point]
Cc1ccc(S(=O)(=O)N2CCCC(C(=O)NCCc3ccc(S(N)(=O)=O)cc3)C2)cc1 (stereo not given)	-13.3%	29.1 µM [rising, single point]	–
COc1ccc(-c2cc(C(=O)NC(C)C)no2)cc1	112%	18.4 µM [rising, partial curve]	18.4 µM [rising, partial curve]
